From patent US4451473A, “3,7-Diazabicyclo [3.3.1] nonanes having anti-arrhythmic activity” (Richter Gedeon Vegyeszeti Gyar Rt., priority 1981, dated 1984)

Key:
[1] = tested on: disorders of cardiac rhythm provoked by aconitine in rats; type: in vivo; conditions: ED50 rat i.v. / LD50 mouse i.v.
Description: When examining the antiarrhythmic effects, rats were pre-treated intravenously with 1 mg/kg of aconitine to provoke disorders of cardiac rhythm [Med. Exp. (Basel) 10, 93 (1964)], thereafter the test compound was administered intravenously, and the dose required to restore the rhythm in 50% (ED50 mg/kg) was determined.

in vivo = conditions: mouse, iv

In the case of `CCN(CC)CC(=O)Nc1c(C)cccc1C` [Lidocaine, reference compound], the “Therap. index (ED50/LD50)” value [1] was 0.351 and the LD50 (in vivo) was 28.5 mg/kg.
